Measured values reported in article PMC12486161.
Results are given in words; binding and its absence hold for the method and conditions named. In cells and extracts the contact can be indirect. Some results given as binding are weak or reduced against the parent protein; the word gives no strength.

Sequences of proteins named here, by UniProt entry; tags and fusion partners are left off. A change or cut given only in a name is not applied to a line headed by its entry.
UniProt Q99KQ4: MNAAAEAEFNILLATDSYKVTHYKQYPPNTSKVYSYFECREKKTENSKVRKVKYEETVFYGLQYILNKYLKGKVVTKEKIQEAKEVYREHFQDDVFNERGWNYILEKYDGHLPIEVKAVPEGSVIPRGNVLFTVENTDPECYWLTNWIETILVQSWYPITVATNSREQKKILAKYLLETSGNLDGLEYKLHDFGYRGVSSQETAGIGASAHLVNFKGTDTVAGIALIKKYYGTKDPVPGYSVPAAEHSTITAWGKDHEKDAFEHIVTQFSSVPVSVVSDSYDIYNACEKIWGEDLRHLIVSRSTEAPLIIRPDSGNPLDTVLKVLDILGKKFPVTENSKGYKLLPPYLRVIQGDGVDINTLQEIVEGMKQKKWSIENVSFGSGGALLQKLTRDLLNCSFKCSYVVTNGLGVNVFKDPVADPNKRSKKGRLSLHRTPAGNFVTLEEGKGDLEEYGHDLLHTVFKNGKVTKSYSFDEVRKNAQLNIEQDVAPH
UniProt Q99MQ3: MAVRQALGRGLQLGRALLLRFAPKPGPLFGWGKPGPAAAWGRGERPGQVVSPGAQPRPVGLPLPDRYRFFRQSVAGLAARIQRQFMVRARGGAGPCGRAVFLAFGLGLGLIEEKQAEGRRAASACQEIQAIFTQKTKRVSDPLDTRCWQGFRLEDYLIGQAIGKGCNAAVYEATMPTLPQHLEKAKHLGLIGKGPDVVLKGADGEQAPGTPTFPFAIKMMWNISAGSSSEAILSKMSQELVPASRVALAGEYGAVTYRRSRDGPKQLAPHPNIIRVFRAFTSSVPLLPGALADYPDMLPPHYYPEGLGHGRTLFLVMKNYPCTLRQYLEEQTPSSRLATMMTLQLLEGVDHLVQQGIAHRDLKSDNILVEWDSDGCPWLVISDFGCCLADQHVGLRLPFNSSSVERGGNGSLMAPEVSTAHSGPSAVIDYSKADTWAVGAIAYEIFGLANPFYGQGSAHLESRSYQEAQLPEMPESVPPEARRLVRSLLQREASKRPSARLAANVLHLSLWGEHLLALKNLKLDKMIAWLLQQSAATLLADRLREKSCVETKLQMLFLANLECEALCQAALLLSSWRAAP
UniProt Q9WVK8: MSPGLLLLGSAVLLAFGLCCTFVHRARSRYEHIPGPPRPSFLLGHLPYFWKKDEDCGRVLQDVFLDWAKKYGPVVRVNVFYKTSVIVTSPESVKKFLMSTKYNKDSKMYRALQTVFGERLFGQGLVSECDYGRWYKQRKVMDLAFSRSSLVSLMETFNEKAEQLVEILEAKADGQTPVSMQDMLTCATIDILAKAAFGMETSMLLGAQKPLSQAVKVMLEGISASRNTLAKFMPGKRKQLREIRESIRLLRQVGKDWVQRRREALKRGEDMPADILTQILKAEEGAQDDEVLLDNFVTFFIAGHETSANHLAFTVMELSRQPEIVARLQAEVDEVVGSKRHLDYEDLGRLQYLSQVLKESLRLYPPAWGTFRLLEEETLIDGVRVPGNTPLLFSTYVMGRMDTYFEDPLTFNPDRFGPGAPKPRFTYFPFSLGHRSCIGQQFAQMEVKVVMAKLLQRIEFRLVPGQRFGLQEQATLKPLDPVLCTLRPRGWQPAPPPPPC

Columns and labels:
[1] = molecular target: Nicotinamide phosphoribosyltransferase (NAMPT) in HT22 cells and primary mouse neurons (mouse (endogenous in HT22 and primary C57BL/6 neurons)) (UniProt Q99KQ4); test: co-IP; primary mouse neurons, untreated or treated with ox-LDL (70 ug/ml), with or without Alisol A; lysate precipitated with anti-NAMPT antibody and protein A/G magnetic beads, IgG as control; blots with anti-SIRT1, anti-CYP46A1, anti-PINK1
[2] = molecular target: Nicotinamide phosphoribosyltransferase (NAMPT) in HT22 cells and primary mouse neurons (mouse (endogenous in HT22 and primary C57BL/6 neurons)) (UniProt Q99KQ4); test: co-IP; HT22 cells, untreated or treated with Abeta25-35 (20 uM) and cholesterol complex (50 ug/ml cholesterol), with or without Alisol A (10 uM); lysate precipitated with anti-NAMPT antibody and protein A/G magnetic beads, IgG as control; blots with anti-SIRT1, anti-CYP46A1, anti-PINK1

Substance | binding [1] | binding [2]
PTEN-induced kinase 1 (PINK1) (from UniProt Q99MQ3 78-580) (enzyme) | binds | binds
Cholesterol 24-hydroxylase (CYP46A1) (from UniProt Q9WVK8 1-500) (enzyme) | binds | binds
